PubChem BioAssay AID1671195, Yale University, 2021
Here is one part, drawn at random, of about 22,000 deposited reagents. Of all reagents, about 1,510 (6.9%) were called active. 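Active includes knockdowns raising or lowering LDL uptake; positive z-scores mean more uptake, negative mean less.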 Unmarked entries are inactive. No sequences are given here.

Screen: 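Genes whose knockdown alters LDL uptake in liver cancer cells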 (primary screen)
Cell system: human Huh7 hepatoma cells
Reagents: siRNA pool against human genes, 18 nM
Duration: about 2 to 2.5 days of knockdown, then 8 h LDL uptake
Conditions: DiI-labelled LDL at 30 µg/ml for 8 h, in lipoprotein-deficient serum medium
Measurement: 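Fluorescent LDL signal imaged in cells, scaled to the plate median, robust z-score for each replicate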
Reading the numbers: robust z-score: higher = more LDL uptake after knockdown
Rule for the call: 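a gene counts as active if at least two replicate z-scores exceed ±2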

gene | robust z-score, replicate 1 | robust z-score, replicate 2 | robust z-score, replicate 3
MGC40069 (retired record) | -0.568 | -0.827 | -0.411
PDCD2 | -0.134 | -0.0764 | -0.143
NDUFS3 | 0.194 | -0.242 | -0.412
TMA7 | 0.0471 | 1.12 | 0.195
CCDC89 | -1.03 | -1.15 | -1.12
SALL2 | 0.049 | 0.225 | 1.51
ZNF833P | -0.562 | -0.34 | -0.225
LOC390250 | 0.0325 | -0.358 | -0.11
GINS3 | -0.348 | -0.292 | -0.782
FAM177B | -1.07 | -1.15 | -1.26
NWD1 | 0.0978 | 0.525 | 0.56
PEF1 | 0.69 | 0.649 | 0.95
CAPZB | 0.859 | 0.505 | 0.0673
UQCRFS1 | 0.264 | -0.227 | 0.358
PGP | 0.214 | -0.106 | 0.232
ACOT8 | -0.491 | -0.635 | -0.516

Continued (6 carried over from the part before).
gene | robust z-score, replicate 1 | robust z-score, replicate 2 | robust z-score, replicate 3
NWD1 | 0.0978 | 0.525 | 0.56
PEF1 | 0.69 | 0.649 | 0.95
CAPZB | 0.859 | 0.505 | 0.0673
UQCRFS1 | 0.264 | -0.227 | 0.358
PGP | 0.214 | -0.106 | 0.232
ACOT8 | -0.491 | -0.635 | -0.516
AFAP1 | -0.408 | -0.802 | -1.23
LAP3 | 0.269 | 0.349 | -0.16
SMARCA2 | 2.57 (active) | 3.06 | 2.05
EVX2 | 0.911 | 0.18 | 0.193
PRR15 | -0.526 | -0.691 | -0.449
TACR2 | -0.819 | -1.59 | -1.49
ACSL3 | -0.668 | -0.95 | -1.43
BNIPL | -0.695 | -0.00168 | 0.268
GALNT10 | 1.88 | 1.76 | 1.71
GALNT1 | 2.47 | 1.18 | 1.54
HIPK3 | 1.28 | -0.671 | 0.963
NLGN1 | -1.69 | -1.6 | -1.56
CRISPLD1 | 0.57 | 0.99 | 0.197
LINC01107 | -1.11 | -0.291 | 10.9
EIF4A2 | 1.92 (active) | 2.3 | 2.65
RASGRF1 | -0.255 | 0.167 | 0.499
LOC389166 (retired record) | -0.558 | -0.727 | -0.998
PCDHB5 | -0.289 | -0.499 | -0.0667
CAVIN2 | -0.102 | -0.559 | -0.813
SLC35F4 | 0.63 | 0.565 | 0.883
IGFBP4 | 1.43 | 0.562 | 1.03
ABCD2 | -0.112 | 0.186 | 0.143
G6PD | -0.229 | -0.535 | -0.662
AKNA | 0.326 | 0.0313 | 0.377
ERVFC1-1 | -0.207 | -0.0989 | -0.0426
KLRG2 | 1.7 | 1.39 | 1.23
SMAP1 | 2.54 (active) | 2.63 | 2.21
ARL6 | -1.63 | -0.795 | -1.54
SLAMF8 | 0.658 | -0.336 | -0.0476
ANKRD44 | -0.5 | 0.663 | -0.47
